PubChem BioAssay AID1053208 | Peter MacCallum Cancer Centre | 2014
Screen: 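Synthetic lethal interactions between gene loss and doxorubicin in osteosarcoma cells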 (primary screen). System: mouse osteosarcoma cells, early-passage culture from an engineered mouse model of fibroblastic bone tumour. Reagent: siRNA pool against mouse genes, 40 nM. Time to read-out: about 120 h (48 h before drug, then 72 h with drug). Challenge: doxorubicin 100 nM for 72 h, roughly 30-40% inhibitory dose. Measurement: 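Viability read as ATP luminescence after 72 h of 100 nM doxorubicin or none, duplicate wells averaged, scaled to non-targeting siRNA, then expressed as robust z-scores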. Direction: viability z-score with doxorubicin: higher = more viable cells under doxorubicin; viability z-score without drug: higher = more viable cells with knock-down alone. Rule for the call: 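a pool counts as active when its viability z-score with doxorubicin is -2 or below and its z-score without drug lies between -2 and 2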.
Shown is a random part of about 17,000 reagents. In the full data, 788 (4.7%) are marked active. 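Calls rest on z-score classes alone; an extra cut-off of viability at most 70% of control was not applied to them.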 Unmarked entries are inactive. Not all columns of the deposit are shown.

Hs6st3 (heparan sulfate 6-O-sulfotransferase 3)
- combined z-score class: high cell count with and without drug
- viability z-score with doxorubicin: 2.47
- viability z-score without drug: 2.19

Slc5a4a
- combined z-score class: low cell count with doxorubicin only (active)
- viability z-score with doxorubicin: -2.7
- viability z-score without drug: 0.17

Wfdc15b (WAP four-disulfide core domain 15B)
- combined z-score class: no change with or without drug
- viability z-score with doxorubicin: 0
- viability z-score without drug: 0

Syt13 (synaptotagmin XIII)
- combined z-score class: no change with or without drug
- viability z-score with doxorubicin: 1.46
- viability z-score without drug: -1.69

Kpnb1 (karyopherin subunit beta 1)
- combined z-score class: low cell count with and without drug
- viability z-score with doxorubicin: -4.61
- viability z-score without drug: -4.55

Dstyk (dual serine/threonine and tyrosine protein kinase)
- combined z-score class: no change with or without drug
- viability z-score with doxorubicin: -0.34
- viability z-score without drug: -0.17

Gpkow (G patch domain and KOW motifs)
- combined z-score class: no change with or without drug
- viability z-score with doxorubicin: 0.79
- viability z-score without drug: 1.18

Anks3 (ankyrin repeat and sterile alpha motif domain containing 3)
- combined z-score class: no change with or without drug
- viability z-score with doxorubicin: 0.67
- viability z-score without drug: 0.17

Cse1l (chromosome segregation 1 like)
- combined z-score class: low cell count with doxorubicin only (active)
- viability z-score with doxorubicin: -6.3
- viability z-score without drug: -1.85

Ubr5 (ubiquitin protein ligase E3 component n-recognin 5)
- combined z-score class: no change with or without drug
- viability z-score with doxorubicin: 0.34
- viability z-score without drug: 0.34

Slc43a1
- combined z-score class: no change with or without drug
- viability z-score with doxorubicin: 0
- viability z-score without drug: 1.52

2300002M23Rik (RIKEN cDNA 2300002M23 gene)
- combined z-score class: no change with or without drug
- viability z-score with doxorubicin: -0.22
- viability z-score without drug: 1.69

Slc25a33
- combined z-score class: no change with or without drug
- viability z-score with doxorubicin: 1.69
- viability z-score without drug: 1.85

Ppp1r10 (protein phosphatase 1, regulatory subunit 10)
- combined z-score class: no change with or without drug
- viability z-score with doxorubicin: 0.56
- viability z-score without drug: 0.51

Vnn3 (vanin 3)
- combined z-score class: no change with or without drug
- viability z-score with doxorubicin: -1.24
- viability z-score without drug: -0.84

Lrrc3b (leucine rich repeat containing 3B)
- combined z-score class: no change with or without drug
- viability z-score with doxorubicin: 0.34
- viability z-score without drug: -0.84

Uncx (UNC homeobox)
- combined z-score class: no change with or without drug
- viability z-score with doxorubicin: -0.9
- viability z-score without drug: -0.84

C130074G19Rik (RIKEN cDNA C130074G19 gene)
- combined z-score class: no change with or without drug
- viability z-score with doxorubicin: -1.57
- viability z-score without drug: 1.01

6030452D12Rik (RIKEN cDNA 6030452D12 gene)
- combined z-score class: no change with or without drug
- viability z-score with doxorubicin: 0.45
- viability z-score without drug: 1.52

Phldb2 (pleckstrin homology like domain, family B, member 2)
- combined z-score class: low cell count with doxorubicin only (active)
- viability z-score with doxorubicin: -5.06
- viability z-score without drug: -0.17

Ctnnb1 (catenin beta 1)
- combined z-score class: no change with or without drug
- viability z-score with doxorubicin: -0.11
- viability z-score without drug: 0.17

Msrb1 (methionine sulfoxide reductase B1)
- combined z-score class: no change with or without drug
- viability z-score with doxorubicin: 0.45
- viability z-score without drug: 0.84

Or4c122 (olfactory receptor family 4 subfamily C member 122)
- combined z-score class: high cell count without drug only
- viability z-score with doxorubicin: -0.9
- viability z-score without drug: 2.87

Tm9sf2 (transmembrane 9 superfamily member 2)
- combined z-score class: no change with or without drug
- viability z-score with doxorubicin: 0.67
- viability z-score without drug: 0.34

Copied from the listing (2 entries):
Wfdc15b (WAP four-disulfide core domain 15B)
- combined z-score class: no change with or without drug
- viability z-score with doxorubicin: 0
- viability z-score without drug: 0

Syt13 (synaptotagmin XIII)
- combined z-score class: no change with or without drug
- viability z-score with doxorubicin: 1.46
- viability z-score without drug: -1.69

More results follow.
Cyp2ab1 (cytochrome P450, family 2, subfamily ab, polypeptide 1)
- combined z-score class: no change with or without drug
- viability z-score with doxorubicin: 0.9
- viability z-score without drug: 1.85

Zmynd11 (zinc finger, MYND domain containing 11)
- combined z-score class: no change with or without drug
- viability z-score with doxorubicin: -0.22
- viability z-score without drug: 0.17

Nectin2 (nectin cell adhesion molecule 2)
- combined z-score class: no change with or without drug
- viability z-score with doxorubicin: 0.9
- viability z-score without drug: -0.84

Bend3 (BEN domain containing 3)
- combined z-score class: no change with or without drug
- viability z-score with doxorubicin: -0.45
- viability z-score without drug: -0.34

Gper1 (G protein-coupled estrogen receptor 1)
- combined z-score class: no change with or without drug
- viability z-score with doxorubicin: -0.67
- viability z-score without drug: -1.18

Prelid3a (PRELI domain containing 3A)
- combined z-score class: no change with or without drug
- viability z-score with doxorubicin: -0.79
- viability z-score without drug: 0.51

Cst13 (cystatin 13)
- combined z-score class: no change with or without drug
- viability z-score with doxorubicin: -0.45
- viability z-score without drug: 0.17

Msantd3 (Myb/SANT-like DNA-binding domain containing 3)
- combined z-score class: no change with or without drug
- viability z-score with doxorubicin: -0.22
- viability z-score without drug: 0.17

Srst (simple repeat sequence-containing transcript)
- combined z-score class: no change with or without drug
- viability z-score with doxorubicin: 0.79
- viability z-score without drug: 0.51

Atcay (ATCAY kinesin light chain interacting caytaxin)
- combined z-score class: no change with or without drug
- viability z-score with doxorubicin: 0.22
- viability z-score without drug: -0.51

Gm9735 (predicted gene 9735)
- combined z-score class: high cell count with and without drug
- viability z-score with doxorubicin: 2.02
- viability z-score without drug: 2.19

Or4d11 (olfactory receptor family 4 subfamily D member 11)
- combined z-score class: no change with or without drug
- viability z-score with doxorubicin: -0.67
- viability z-score without drug: -0.51
